# From PubChem BioAssay AID1487 (National Center for Advancing Translational Sciences (NCATS), 2009)
# Some of the results follow. Shown are side measurements of this screen, not its main read-out; they come without a call. Most of these compounds were active or inconclusive in the main read-out, so they are no random draw. Potencies come from curve fits of mixed quality, noted in brackets.
# Assay: qHTS Assay for Modulators of Lamin A Splicing
# Conditions: HeLa LMNA splicing GFP/RFP minigene ratio, 48 h
# Outline: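 Read-out is the ratio of GFP to DsRed2 object intensity, acquired by 488 nm laser-scanning cytometry on HeLa lamin A-EGFP minigene reporter cells. Compound incubation 48 hrs at 37 °C in Opti-MEM with 2% FBS; DMSO 0.5% final.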
# [1] = measured here: RFP viability control channel
# [2] = measured here: GFP splicing reporter channel
Structure (SMILES),AC50 [1],AC50 [2]
Cc1ccc(C(=O)c2cc3c(cc2N)OCCO3)cc1,"31.6 µM [rising, partial curve]",
CN(C)c1nc(N)c(C(=O)N=C(N)N)nc1Cl,"0.000891 µM [falling, full curve, poor fit]",
Cc1nnsc1C(=O)NNc1ccc(Cl)cc1,"12.6 µM [rising, partial curve]","11.2 µM [rising, partial curve]"
Cn1cc(-c2nc3cnc(N4CCNCC4)nc3n(Cc3ccc(F)cc3)c2=O)c2ccccc21,"35.5 µM [falling, single point]","35.5 µM [falling, single point]"
O=C(COC(=O)c1cccc(S(=O)(=O)N2CCOCC2)c1)Nc1ccc2c(c1)OCO2,"0.0447 µM [falling, full curve, poor fit]",
O=C(Nc1ccc2c(c1)OCO2)C1CCCCN1S(=O)(=O)c1ccc(F)cc1 (stereo not drawn),"10 µM [rising, partial curve]","8.91 µM [rising, partial curve]"
CC(C)c1cnc2c(c1SCc1cccc(F)c1)c(=O)n(C)c(=O)n2C,,"2.82 µM [rising, full curve, poor fit]"
CCCOC(=O)CSC1=C(C#N)C(c2ccc3c(c2)OCO3)CC(=O)N1 (stereo not drawn),"22.4 µM [rising, single point]",
Cc1c(C(=O)Nc2cccc(Cl)c2)c2ccccn2c1CCc1ccncc1,"14.1 µM [rising, single point]",
CN1C(=S)SC(N(O)C(=O)Nc2ccc(Cl)c(Cl)c2)C1(C)C (stereo not drawn),"35.5 µM [rising, single point]","28.2 µM [rising, single point]"
O=C(/C=C/c1ccc2c(c1)OCO2)NCCSCc1c(Cl)cccc1Cl,"10 µM [rising, single point]",
Cc1ccccc1-c1nc(CS(=O)(=O)CC(=O)Nc2cc(F)ccc2F)c(C)o1,"12.6 µM [rising, partial curve]",
COc1ccc(-n2c(=O)c3ccccc3n(CC(=O)OCc3ccccc3)c2=O)cc1OC,"1.26 µM [falling, full curve, poor fit]",
CN(C)C(=S)SCC(=O)NC(=O)NC(C)(C)C,"0.355 µM [falling, partial curve, poor fit]",
COc1ccc(NC(=O)Nc2ccc3oc(C)nc3c2)cc1,"7.94 µM [falling, partial curve, poor fit]",
Cc1cc(Cl)ccc1OC(C)C(=O)NCCc1ccc2c(c1)OCCO2 (stereo not drawn),"31.6 µM [rising, single point]",
Fc1cccc(-c2cc3nc4c(c(N5CCOCC5)n3n2)CCCC4)c1,"35.5 µM [rising, single point]","25.1 µM [rising, single point]"
O=c1[nH]c(=O)n([C@H]2C[C@H](O)[C@@H](CO)O2)cc1C(F)(F)F,"2 µM [rising, full curve]","3.98 µM [rising, full curve, poor fit]"
CCc1ccc(OCC(=O)N/N=C/c2cc([N+](=O)[O-])ccc2N2CCCCCC2)cc1,"12.6 µM [rising, single point]",
CN(C)Cc1ccccc1-c1nc(NCc2cccs2)c2ccccc2n1,,"11.2 µM [falling, partial curve]"

Structure (SMILES),AC50 [1],AC50 [2]
O=C(CN1CCOCC1)Nc1c(C(=O)C2CC2)oc2ccccc12,,"0.355 µM [rising, full curve, poor fit]"
Cc1ccc(Cn2ccc(-c3cnc(-c4ccccc4)s3)n2)cc1,"10 µM [rising, single point]",
COc1ccccc1CC1S/C(=N/N=C/c2ccco2)NC1=O (stereo not drawn),"1.26 µM [rising, partial curve, poor fit]",
O=C(CSc1ccc2c(c1)OCCO2)NCCc1ccc(Cl)cc1Cl,"7.08 µM [rising, partial curve, poor fit]",
COc1ccc(CNC(=O)c2sc3nc4c(c(C(F)(F)F)c3c2N)CCC4)cc1OC,"10 µM [rising, partial curve]","11.2 µM [rising, partial curve, poor fit]"
CCCCNc1oc(-c2cccs2)nc1S(=O)(=O)c1ccccc1,"15.8 µM [rising, single point]","31.6 µM [rising, single point]"
CC(C)C(=O)Nc1ccc2c3c(cccc13)CC2,"8.91 µM [rising, partial curve, poor fit]",
CC1CCN(c2oc(-c3ccc(COc4ccccc4)o3)nc2C#N)CC1,,"0.158 µM [rising, full curve, poor fit]"
O=C(NCC(c1cccs1)S(=O)(=O)c1cccs1)c1ccc(Cl)cc1 (stereo not drawn),"2.82 µM [falling, full curve]","3.16 µM [falling, full curve, poor fit]"
CCc1nc(C)cn1S(=O)(=O)c1cc(C)c(OC)c(C)c1C,"6.31 µM [rising, partial curve]",
CC(=O)c1c(C)[nH]c(C(=O)NCCC2=CCCCC2)c1C,"11.2 µM [rising, partial curve]",
Cc1ccc(-n2c(SCC(=O)NCc3ccccc3)nc3n[nH]c(C)c3c2=N)cc1Cl,"0.0631 µM [falling, full curve, poor fit]",
O=C(Nc1cccnc1)C1CCN(S(=O)(=O)c2cccs2)CC1,,"0.00501 µM [falling, full curve, poor fit]"
Cc1ccc(/C=C/C(=O)Nc2ccc(S(N)(=O)=O)cc2)o1,"0.2 µM [rising, full curve, poor fit]",
Cn1c[n+](C)cc1-c1ccc(/C(N)=N/O)cc1,"1.58 µM [falling, full curve, poor fit]",
COc1ccc(NC(=O)C(c2ccccc2)c2ccccc2)cn1,,"5.62 µM [rising, partial curve, poor fit]"
Oc1c(C(c2ccc(F)cc2)N2CCc3ccccc3C2)sc2ncnn12 (stereo not drawn),"12.6 µM [rising, single point]",
CCOC(=O)Cc1csc(NC(=O)c2ccc(S(=O)(=O)N3CCCC3)cc2)n1,"11.2 µM [rising, partial curve]",
CC(C)OC(=O)c1cccnc1N1CCN(c2ccc(F)cc2)CC1,"3.98 µM [falling, single point]",
Cc1csc2ncnc(NNC(=O)c3ccc(Cl)cc3)c12,"1.41 µM [falling, partial curve, poor fit]","11.2 µM [falling, single point]"

# 3 entries drawn at random from those above, as already listed:
Structure (SMILES),AC50 [1],AC50 [2]
COc1ccccc1CC1S/C(=N/N=C/c2ccco2)NC1=O (stereo not drawn),"1.26 µM [rising, partial curve, poor fit]",
Cc1ccc(-n2c(SCC(=O)NCc3ccccc3)nc3n[nH]c(C)c3c2=N)cc1Cl,"0.0631 µM [falling, full curve, poor fit]",
O=C(Nc1cccnc1)C1CCN(S(=O)(=O)c2cccs2)CC1,,"0.00501 µM [falling, full curve, poor fit]"

# (listing goes on)

Structure (SMILES),AC50 [1],AC50 [2]
Cc1nc(-c2ccc(S(=O)(=O)N3CCCCCC3)cc2)cs1,"14.1 µM [rising, single point]",
CCOC(=O)c1cccc(NC(=O)c2cn(-c3cccc(OC)c3)c(=O)c3ccccc23)c1,"11.2 µM [rising, partial curve]",
Cc1noc(C)c1CCC(=O)N1CCCC(CCC(=O)NCc2ccccc2F)C1 (stereo not drawn),"0.158 µM [falling, full curve, poor fit]",
O=C(CCS(=O)(=O)c1ccc(Br)cc1)Nc1ccc(Cl)c(C(F)(F)F)c1,"35.5 µM [falling, single point]","25.1 µM [falling, single point]"
Cc1cc(C)cc(-n2c(C)cc(C(=O)CSc3nnnn3C)c2C)c1,"17.8 µM [rising, single point]",
COc1cccc(CN2CCN(S(=O)(=O)c3ccc(Br)cc3)CC2)c1,"14.1 µM [rising, single point]",
C/C(=N\NC(=O)C(=O)Nc1cc(Cl)ccc1Cl)c1ccncc1,,"10 µM [rising, single point]"
Cc1occc1C(=O)Nc1ccc(S(=O)(=O)N2CCCC2)cc1,"3.98 µM [rising, partial curve]",
COc1ccc(CNc2cc(-c3ccoc3)ncn2)c(OC)c1,,"11.2 µM [falling, partial curve, poor fit]"
O=C(OC1CCOC1=O)c1cc(-c2cccs2)nc2ccccc12 (stereo not drawn),"3.55 µM [rising, single point]","2.82 µM [rising, partial curve]"
O=C(COc1ccc(Cl)cc1)NCCc1csc(-c2ccc(F)cc2)n1,"0.00562 µM [falling, full curve, poor fit]",
CCN(CC)C(=O)c1cc(C(C)(C)C)c(O)c(C(C)(C)C)c1,"22.4 µM [rising, single point]","12.6 µM [rising, single point]"
O=C(COc1ccc(Cl)cc1)Nc1ccc(C(=O)NCc2cccnc2)cc1,"11.2 µM [rising, single point]",
COc1cccc(OC)c1C(=O)N1CCN(Cc2ccccc2C)CC1,"7.94 µM [rising, partial curve, poor fit]",
COc1ccc(Cn2c(=O)sc3ccccc32)cc1OC,"3.98 µM [rising, full curve]","2.82 µM [rising, full curve]"
C#CCSc1nc(Cc2ccc(Cl)cc2)nc2ccccc12,"22.4 µM [falling, partial curve]","35.5 µM [falling, single point]"
O=S(=O)(c1ccc(Cl)cc1)N1CCN(c2ccc(N3CCOCC3)nn2)CC1,"15.8 µM [rising, partial curve, poor fit]",
Cc1c(/C=N/NC(=O)CNc2ccccc2)c2ccccn2c1C(=O)c1ccccc1,"10 µM [rising, partial curve, poor fit]",
